Experiment [1] has as its target T1, GFP-ENTR1 wild-type (endosome associated trafficking regulator 1, N-terminal EGFP) (UniProt Q96C92).
T1 sequence: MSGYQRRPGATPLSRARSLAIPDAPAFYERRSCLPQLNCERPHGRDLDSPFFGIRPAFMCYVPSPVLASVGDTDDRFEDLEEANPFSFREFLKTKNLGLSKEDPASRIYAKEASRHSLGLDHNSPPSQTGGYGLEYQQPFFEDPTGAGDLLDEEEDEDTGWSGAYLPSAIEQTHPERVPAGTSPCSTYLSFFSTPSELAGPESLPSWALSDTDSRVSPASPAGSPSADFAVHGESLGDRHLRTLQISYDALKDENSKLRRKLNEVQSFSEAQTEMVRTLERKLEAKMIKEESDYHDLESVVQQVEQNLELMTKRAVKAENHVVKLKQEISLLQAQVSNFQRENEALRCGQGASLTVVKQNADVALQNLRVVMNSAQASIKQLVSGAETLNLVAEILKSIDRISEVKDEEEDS
As to the kind of experiment: co-IP; HeLa cells transfected with GFP-tagged ENTR1 constructs; GFP-Trap_A for 3 h at 4 °C in lysis buffer (50 mM HEPES pH 7.5, 150 mM NaCl, 1.5 mM MgCl2, 1 mM EDTA, 10% glycerol, 1% Triton X-100); western blot for endogenous PTPN13. Background: In western blotting, separated proteins are transferred to a membrane and probed.

Sequences of proteins named here, by UniProt entry; tags and fusion partners are left off.
UniProt Q12923: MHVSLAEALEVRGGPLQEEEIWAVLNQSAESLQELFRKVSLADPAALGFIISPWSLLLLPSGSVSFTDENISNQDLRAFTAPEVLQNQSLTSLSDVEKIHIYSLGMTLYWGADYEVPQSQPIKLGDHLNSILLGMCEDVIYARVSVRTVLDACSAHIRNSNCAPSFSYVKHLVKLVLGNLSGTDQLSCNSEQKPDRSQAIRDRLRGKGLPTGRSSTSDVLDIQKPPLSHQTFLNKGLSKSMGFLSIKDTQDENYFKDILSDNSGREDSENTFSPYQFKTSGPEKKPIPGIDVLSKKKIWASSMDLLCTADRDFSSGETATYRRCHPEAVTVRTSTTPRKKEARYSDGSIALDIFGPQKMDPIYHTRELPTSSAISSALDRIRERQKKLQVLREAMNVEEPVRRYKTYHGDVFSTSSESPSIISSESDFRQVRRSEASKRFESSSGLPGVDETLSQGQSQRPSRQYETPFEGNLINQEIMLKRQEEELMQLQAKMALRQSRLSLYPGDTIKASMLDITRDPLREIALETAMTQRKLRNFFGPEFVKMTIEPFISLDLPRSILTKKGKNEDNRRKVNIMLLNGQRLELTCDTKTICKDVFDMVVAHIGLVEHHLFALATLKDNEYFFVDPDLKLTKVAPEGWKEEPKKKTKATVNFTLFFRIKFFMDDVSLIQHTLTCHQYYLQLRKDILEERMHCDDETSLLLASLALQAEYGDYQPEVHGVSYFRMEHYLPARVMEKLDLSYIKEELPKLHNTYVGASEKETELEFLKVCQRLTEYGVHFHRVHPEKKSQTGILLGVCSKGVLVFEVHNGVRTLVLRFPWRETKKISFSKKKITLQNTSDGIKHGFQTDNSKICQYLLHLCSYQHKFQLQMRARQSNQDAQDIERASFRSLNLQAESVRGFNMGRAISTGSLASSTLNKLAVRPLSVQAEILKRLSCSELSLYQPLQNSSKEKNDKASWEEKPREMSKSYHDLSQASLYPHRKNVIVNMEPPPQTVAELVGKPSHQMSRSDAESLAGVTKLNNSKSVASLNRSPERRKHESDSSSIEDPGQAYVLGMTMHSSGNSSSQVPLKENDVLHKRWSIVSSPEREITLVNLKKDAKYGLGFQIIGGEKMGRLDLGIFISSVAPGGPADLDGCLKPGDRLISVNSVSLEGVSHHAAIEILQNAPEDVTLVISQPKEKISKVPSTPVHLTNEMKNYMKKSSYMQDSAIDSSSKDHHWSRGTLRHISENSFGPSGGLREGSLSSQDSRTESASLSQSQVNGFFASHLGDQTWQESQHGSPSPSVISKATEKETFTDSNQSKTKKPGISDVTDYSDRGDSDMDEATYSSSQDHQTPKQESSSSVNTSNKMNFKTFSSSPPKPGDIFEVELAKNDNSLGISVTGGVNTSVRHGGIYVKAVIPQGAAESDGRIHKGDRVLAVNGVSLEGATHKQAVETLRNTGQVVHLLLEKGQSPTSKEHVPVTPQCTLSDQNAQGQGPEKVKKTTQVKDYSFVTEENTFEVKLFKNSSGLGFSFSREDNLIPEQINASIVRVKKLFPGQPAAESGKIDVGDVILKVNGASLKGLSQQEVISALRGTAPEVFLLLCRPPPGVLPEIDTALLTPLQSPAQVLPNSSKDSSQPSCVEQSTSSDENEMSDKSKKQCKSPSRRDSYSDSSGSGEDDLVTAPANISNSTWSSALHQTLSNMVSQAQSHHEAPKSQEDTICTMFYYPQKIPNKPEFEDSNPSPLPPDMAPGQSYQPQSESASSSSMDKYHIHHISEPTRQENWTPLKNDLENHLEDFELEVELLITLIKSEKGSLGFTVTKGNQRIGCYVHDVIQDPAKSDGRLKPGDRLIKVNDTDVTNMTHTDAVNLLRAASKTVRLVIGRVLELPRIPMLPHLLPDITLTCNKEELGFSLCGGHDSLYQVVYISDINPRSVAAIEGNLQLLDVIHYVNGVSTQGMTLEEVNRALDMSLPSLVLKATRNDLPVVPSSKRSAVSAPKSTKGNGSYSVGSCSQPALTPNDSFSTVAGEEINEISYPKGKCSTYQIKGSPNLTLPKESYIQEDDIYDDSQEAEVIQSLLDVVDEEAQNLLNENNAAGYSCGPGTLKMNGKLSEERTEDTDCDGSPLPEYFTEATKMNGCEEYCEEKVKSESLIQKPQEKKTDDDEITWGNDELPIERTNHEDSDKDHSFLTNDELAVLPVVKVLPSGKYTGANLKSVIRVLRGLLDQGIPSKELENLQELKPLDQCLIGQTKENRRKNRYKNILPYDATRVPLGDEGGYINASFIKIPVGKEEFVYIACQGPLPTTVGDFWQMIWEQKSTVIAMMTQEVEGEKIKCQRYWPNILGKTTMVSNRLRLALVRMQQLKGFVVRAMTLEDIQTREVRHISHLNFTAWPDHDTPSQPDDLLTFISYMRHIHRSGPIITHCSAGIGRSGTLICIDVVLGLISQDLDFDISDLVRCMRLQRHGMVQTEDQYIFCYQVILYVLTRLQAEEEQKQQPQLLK

Experiment [2] concerns the target T2, GST-ENTR1 (fusion protein of GST and full length ENTR1) (UniProt Q96C92).
T2 sequence: T1 sequence
As to the kind of experiment: pull-down; GST fusion protein or GST control on beads, incubated with HeLa cell lysate for 4 h at 4 °C; washed five times with 0.5% Triton X-100 in PBS; western blot; only the target purified.

Results are given in words; binding and its absence hold for the method and conditions named. In cells and extracts the contact can be indirect. Some binding calls cover weakened binding; strength is not graded here. Tags and fused reporters may be left off the sequences shown.

Take “PTPN13, endogenous full-length (from UniProt Q12923 1-2485)”: the binding result in experiment [1] was “binds”.

B1: Pallidin, endogenous (protein, UniProt Q9UL45 1-172)
chain: MSVPGPSSPDGALTRPPYCLEAGEPTPGLSDTSPDEGLIEDLTIEDKAVEQLAEGLLSHYLPDLQRSKQALQELTQNQVVLLDTLEQEISKFKECHSMLDINALFAEAKHYHAKLVNIRKEMLMLHEKTSKLKKRALKLQQKRQKEELEREQQREKEFEREKQLTARPAKRM
As for B1, the binding result in experiment [2] is reported as “no binding”.

For the origin of these results see PMC6629679.
